# Where a name gives a salt, the structure may show the parent alone. Some of the results follow. Single values are uncertain, as repeats are few or missing.
# System: Drosophila melanogaster DPAGT1 (Alg7) RNAi eye model
# Test: eye size Z-score vs DMSO-treated DPAGT1 model flies; higher = larger eye (suppression of DPAGT1 phenotype)
# Conditions: 5 uM
SMILES,eye size Z-score,eye size Z-score (female)
Cc1cc(-n2c(=O)[nH]c(=O)n(C)c2=O)ccc1Oc1ccc(SC(F)(F)F)cc1 [Toltrazuril],0.21,
Cc1ccccc1N1C(=O)c2cc(S(N)(=O)=O)c(Cl)cc2NC1C (configuration not stated) [Metolazone],-0.49,
COc1ccc2[nH]c([S+]([O-])Cc3ncc(C)c(OC)c3C)nc2c1 (configuration not stated) [Omeprazole],0.11,
CC(=O)Nc1ccc(O)cc1 [Acetaminophen],-0.73,
CO/N=C(\C(=O)N[C@@H]1C(=O)N2C(C(=O)O)=C(C[N+]3(C)CCCC3)CS[C@H]12)c1csc(N)n1 [Cefepime hydrochloride],-0.24,
CCOC(=O)[C@H](CCc1ccccc1)N[C@@H](C)C(=O)N1CCC[C@H]1C(=O)O [Enalapril maleate],-0.12,
CC(Oc1c(Cl)cccc1Cl)C1=NCCN1 (configuration not stated) [Lofexidine],-0.27,
CC1=C(CC(=O)O)c2cc(F)ccc2/C1=C\c1ccc([S+](C)[O-])cc1 (configuration not stated) [Sulindac],1.17,
CN(C)CCCO[C@@H]1[C@H]2OC(C)(C)O[C@H]2O[C@@H]1[C@H](O)CO [Amiprilose hydrochloride],-0.08,
C[C@]12CC[C@@H]3c4ccc(O)cc4CC[C@H]3[C@@H]1C[C@@H](O)[C@@H]2O [Estriol],-0.97,
CCc1cccc2c3c([nH]c12)C(CC)(CC(=O)O)OCC3 (configuration not stated) [Etodolac],-0.41,
Cc1noc(NS(=O)(=O)c2ccc(N)cc2)c1C [Sulfisoxazole],0.08,
CC[N+](CC)(CC)CCC(O)(c1ccccc1)C1CCCCC1 (configuration not stated) [Tridihexethyl chloride],0.06,
CN1CCOC(c2ccccc2)c2ccccc2C1 (configuration not stated) [Nefopam hydrochloride],-0.27,
CN1CCC(=C2c3ccccc3CCc3sccc32)CC1 [Pizotifen malate],-0.56,
CN(C)[C@@H]1C(O)=C(C(=O)NCNCCCC[C@H](N)C(=O)O)C(=O)[C@@]2(O)C(O)=C3C(=O)c4c(O)cccc4[C@@](C)(O)[C@H]3C[C@@H]12 [Lymecycline],1.1,
CCCCNc1ccc(C(=O)OCCN(C)C)cc1 [Tetracaine hydrochloride],0.13,
O=C(Cn1cnnn1)N[C@@H]1C(=O)N2C(C(=O)O)=C(CSc3nncs3)CS[C@H]12 [Ceftezole],0.37,
CCCCCOC(=O)Nc1nc(=O)n([C@@H]2O[C@H](C)[C@@H](O)[C@H]2O)cc1F [Capecitabine],,1.12
COc1ccccc1N1CCN(CCCCNC(=O)c2ccc3ccccc3c2)CC1,0.26,
CCC1NC(=O)c2cc(S(N)(=O)=O)c(Cl)cc2N1 (configuration not stated) [Quinethazone],-0.17,
Cc1cnc(C(=O)NCCc2ccc(S(=O)(=O)NC(=O)NC3CCCCC3)cc2)cn1 [Glipizide],0.58,
O=C1[C@H](CC[C@H](O)c2ccc(F)cc2)[C@@H](c2ccc(O)cc2)N1c1ccc(F)cc1 [Ezetimibe],0.24,
COC(=O)C1=C(C)NC(C)=C(C(=O)OCCN(C)Cc2ccccc2)C1c1cccc([N+](=O)[O-])c1 (configuration not stated) [Nicardipine hydrochloride],0.69,

SMILES,eye size Z-score,eye size Z-score (female)
OC[C@H]1O[C@@H](c2ccc(Cl)c(Cc3ccc(O[C@H]4CCOC4)cc3)c2)[C@H](O)[C@@H](O)[C@@H]1O [Empagliflozin],0.28,
CN1CCN(c2c(F)cc3c(=O)c(C(=O)O)cn4c3c2SCC4)CC1 [Rufloxacin],-0.8,
COC(=O)C1=C(C)NC(C)=C(C(=O)OCC(C)C)C1c1ccccc1[N+](=O)[O-] (configuration not stated) [Nisoldipine],0.69,
CN(C)CCOC(c1ccc(Cl)cc1)c1ccccn1 (configuration not stated) [Carbinoxamine maleate salt],0.42,
O=C1CCc2ccc(OCCCCN3CCN(c4cccc(Cl)c4Cl)CC3)cc2N1 [Aripiprazole],-0.91,
NC(=O)NC1NC(=O)NC1=O (configuration not stated) [Allantoin],0.47,
CNCc1cc(-c2ccccc2F)n(S(=O)(=O)c2cccnc2)c1 [Vonoprazan],0.68,
"CC(C)NCC(O)c1ccc(O)c(O)c1 (single isomer, unassigned; (-)) [(-) Isoproterenol hydrochloride]",-0.14,
O=C1C(O)=C([C@H]2CC[C@H](c3ccc(Cl)cc3)CC2)C(=O)c2ccccc21 [Atovaquone],1.12,
Cc1ccccc1C(OCCN(C)C)c1ccccc1 (configuration not stated) [Orphenadrine hydrochloride],-0.38,
C#C[C@]1(O)CC[C@H]2[C@@H]3CCC4=C(CCC(=O)C4)[C@H]3CC[C@@]21C [Norethynodrel],-0.26,
NS(=O)(=O)c1cc2c(cc1Cl)NC(CC1CCCC1)NS2(=O)=O (configuration not stated) [Cyclopenthiazide],0.15,
CC(C)(C)NCC(O)c1cc(O)cc(O)c1 (configuration not stated) [Terbutaline hemisulfate],-0.73,
CCOC(=O)[N-]c1c[n+](N2CCOCC2)no1 [Molsidomine],0.57,
CC[N+](CC)(CC)CCOc1cccc(OCC[N+](CC)(CC)CC)c1OCC[N+](CC)(CC)CC [Gallamine triethiodide],0.47,
CN[C@@H]1[C@H](O[C@H]2[C@H](O[C@H]3[C@H](O)[C@@H](O)[C@H](NC(=N)N)[C@@H](O)[C@@H]3NC(=N)N)O[C@@H](C)[C@]2(O)CO)O[C@@H](CO)[C@H](O)[C@H]1O [Dihydrostreptomycin sulfate],-0.02,
NCc1ccc(S(N)(=O)=O)cc1 [Mafenide hydrochloride],0.32,
CCc1oc2ccccc2c1C(=O)c1cc(Br)c(O)c(Br)c1 [Benzbromarone],0.33,
CC/C(=C(\c1ccccc1)c1ccc(OCCN(C)C)cc1)c1ccccc1 [Tamoxifen citrate],0.47,
CC(=O)Nc1ccc(C(=O)O)cc1 [Acedoben],-0.18,
CCCCC[C@H](O)/C=C/[C@H]1[C@H](O)CC(=O)[C@@H]1CCCCCCC(=O)O [Alprostadil],-0.5,
CCN1CCC[C@H]1CNC(=O)c1c(O)c(Cl)cc(Cl)c1OC [Raclopride],0.87,
CC[C@@H]([C@H](C)O)n1ncn(-c2ccc(N3CCN(c4ccc(OC[C@@H]5CO[C@@](Cn6cncn6)(c6ccc(F)cc6F)C5)cc4)CC3)cc2)c1=O [Posaconazole hydrate],-0.37,

# Look-ups from the entries so far.
# Entry for COc1ccc2[nH]c([S+]([O-])Cc3ncc(C)c(OC)c3C)nc2c1 (configuration not stated) [Omeprazole] under eye size Z-score: 0.11
# Entry for COC(=O)C1=C(C)NC(C)=C(C(=O)OCCN(C)Cc2ccccc2)C1c1cccc([N+](=O)[O-])c1 (configuration not stated) [Nicardipine hydrochloride] under eye size Z-score: 0.69
# Entry for NC(=O)NC1NC(=O)NC1=O (configuration not stated) [Allantoin] under eye size Z-score: 0.47
